Screening data

The results are deposited in PubChem (AID1347108; NCATS, 2019).

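Living Rh41 pediatric muscle-tumor cells are counted by ATP-driven light output after two days of compound treatment.
Compounds were run as 8- or 11-point dilution series reaching a top final concentration of 46 µM.
The number is the fitted potency (AC50, nM) for loss of viability, and lower values mean a more potent cytotoxic compound.
Calls come from curve class and activity score: active scores 40-100 for well-fitted killing curves, inconclusive scores 1-39 for weak, partial, poorly fitted or top-dose-only curves.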

Values are in nM.
Every entry below has the call inconclusive.
Only part of the assay is shown, chiefly results filed as inconclusive.
Potencies fitted to partial, single-point or poorly fitting curves are rough.
Some entries filed as inconclusive have a full curve.
Activity scores are not listed here.

SMILES	potency (nM)	curve
COc1ccccc1N1CCN(CC(O)COc2cccc3ccccc23)CC1 (centres undefined)	14963	cytotoxic, partial curve, poor fit
CN(C)CCOc1cc(-c2cn[nH]c2)ccc1NC(=O)C1COc2ccccc2O1 (centres undefined)	11770	cytotoxic, partial curve
c1ccc2c(-c3cnn4cc(-c5ccc(N6CCNCC6)cc5)cnc34)ccnc2c1	18654	cytotoxic, partial curve, poor fit
CCOC(=O)c1c(CSc2ccccc2)n(C)c2cc(Br)c(O)c(CN(C)C)c12	20930	cytotoxic, partial curve
CCCCC(C)(C)[C@H](O)C=C[C@H]1[C@H](O)CC(=O)[C@H]1CC=CCCCC(=O)O	18654	cytotoxic, partial curve
O=C(CCN1CCN(C(=O)OCc2cc(Cl)cc(Cl)c2)CC1)c1ccc2[nH]c(=O)oc2c1	13206	cytotoxic, partial curve, poor fit
CCOC(=O)[C@@H](N)Cc1ccc(-c2cc(O[C@H](c3ccc(Cl)cc3-n3ccc(C)n3)C(F)(F)F)nc(N)n2)cc1	23484	cytotoxic, partial curve
Nc1cccc(S(=O)(=O)N2CCCN(S(=O)(=O)c3ccc4c(c3)OCCO4)CC2)c1	14817	cytotoxic, partial curve, poor fit
O=C(O)c1ccc(-c2cc3cccnc3c(-c3ccc4nonc4c3)n2)cc1	23484	cytotoxic, single point
O=C(O)c1cc(=O)[nH]c(=O)[nH]1	11770	cytotoxic, partial curve
CC(C)C[C@@H](C(=O)N[C@H](C(=O)OC1CCCC1)c1ccccc1)[C@H](O)C(=O)NO	14817	cytotoxic, partial curve
Cc1c(-c2ccc(O)cc2)n(Cc2ccc(OCCN3CCCCCC3)cc2)c2ccc(O)cc12	26608	cytotoxic, single point
CN(C)C(=O)[C@H](O)[C@H](Cc1ccccc1)NC(=O)c1cc2cc(Cl)ccc2[nH]1	11770	cytotoxic, partial curve
Cc1cc(OCCCc2c(C(=O)O)n(Cc3cccnc3)c3c(-c4c(COc5ccc(N6CCN([S+](C)(=O)[O-])CC6)cc5)nn(C)c4C)cccc23)cc(C)c1Cl	13206	cytotoxic, partial curve
Clc1cccc(-n2nnnc2NCc2ccccc2Oc2ccccn2)c1Cl	18654	cytotoxic, single point
Nc1ncnc2c1ncn2[C@@H]1O[C@H](CO)C[C@@H]1O	14817	cytotoxic, partial curve, poor fit
CC(C)C(=O)Nc1ncc(-c2cc(C(F)F)nn2-c2c(Cl)cccc2Cl)s1	23484	cytotoxic, single point
COc1ccc2nc(S(=O)Cc3ncc(C)c(OC)c3C)[nH]c2c1 (centres undefined)	33173	cytotoxic, single point
CCOC(CN1C(=O)[C@](CC(=O)Nc2ccc(C)cc2)(NC(=O)Nc2ccc(C)cc2)c2ccccc21)OCC	20930	cytotoxic, partial curve, poor fit
Nc1nc2[nH]cc(CCc3ccc(C(=O)N[C@@H](CCC(=O)O)C(=O)O)cc3)c2c(=O)[nH]1	10490	cytotoxic, partial curve, poor fit
CC(C)(C)OC(=O)N[C@H]1CCCCCC=C[C@@H]2C[C@@]2(C(=O)NS(=O)(=O)C2CC2)NC(=O)[C@@H]2C[C@@H](OC(=O)N3Cc4cccc(F)c4C3)CN2C1=O	11770	cytotoxic, partial curve
COc1cc2c(cc1Cc1cccc(Cl)c1F)c(=O)c(C(=O)O)cn2[C@H](CO)C(C)C	20930	cytotoxic, partial curve
COc1cc([C@@H]2c3cc4c(cc3[C@H](O)[C@H]3COC(=O)[C@@H]23)OCO4)cc(OC)c1OC	186.5	cytotoxic, full curve
NC(=O)[C@@H](CCC(F)(F)F)N(Cc1ccc(-c2ncon2)cc1F)S(=O)(=O)c1ccc(Cl)cc1	16626	cytotoxic, partial curve
Nc1nc(=S)c2[nH]cnc2[nH]1	2348	cytotoxic, full curve
O=C(Nc1ccccc1Br)N[C@@H]1CCN(c2ccc(C(F)(F)F)cn2)C1	16626	cytotoxic, partial curve
Cc1cc(=O)c2c(O)c3c(O)cc(=O)c4c3c3c(cc(O)c1c23)C(C)(C)C=4O	3663	cytotoxic, partial curve
COc1ccc(-n2c(C)c([N+](=O)[O-])c3ccc(O)cc32)cc1	18654	cytotoxic, partial curve
COc1ccc(-c2cc(=O)c3c(O)cc(O)cc3o2)cc1O	11770	cytotoxic, partial curve
C=CC[N+]1([C@H]2C[C@H]3[C@@H]4CC[C@H]5C[C@H](O)[C@@H](N6CCOCC6)C[C@]5(C)[C@@H]4CC[C@]3(C)[C@H]2OC(C)=O)CCCC1	14817	cytotoxic, partial curve
CCCCCN=C(N)NN=Cc1c[nH]c2ccc(OC)cc12	10490	cytotoxic, full curve

2 of the entries, repeated:

{"smiles": "CCOC(=O)[C@@H](N)Cc1ccc(-c2cc(O[C@H](c3ccc(Cl)cc3-n3ccc(C)n3)C(F)(F)F)nc(N)n2)cc1", "potency (nM)": "23484", "curve": "cytotoxic, partial curve"}
{"smiles": "O=C(O)c1ccc(-c2cc3cccnc3c(-c3ccc4nonc4c3)n2)cc1", "potency (nM)": "23484", "curve": "cytotoxic, single point"}